Test results from the supplement of paper PMC11546906.
Where a name gives a salt, the structure may show the parent alone. The list shows a part of the results. Single values are uncertain here, since repeats match poorly.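 A screen tested FDA-approved drugs combined with one-eighth-MIC colistin against a clinical mcr-1-positive, multidrug-resistant E. coli isolate, measuring OD600 at 24 h. Controls were untreated bacteria (growth) and broth alone (blank). An OD600 under 0.2 marked a combination as active.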

System: Escherichia coli 42 (mcr-1-positive clinical isolate)
Test: OD600 after 24 h growth with compound plus colistin (absorbance units (OD600)); higher = more bacterial growth (less inhibition)
Conditions: first compound 25 µM; colistin concentration 0.5 ug/mL; incubation time 24 h; 37 °C

OD600, inactive:
COCCCOc1ccnc(C[S+]([O-])c2nc3ccccc3[nH]2)c1C (centres undefined) [Rabeprazole sodium] + CCC(C)CCCC(=O)N[C@@H](CCN)C(=O)N[C@H](C(=O)N[C@@H](CCN)C(=O)N[C@H]1CCNC(=O)[C@H]([C@@H](C)O)NC(=O)[C@H](CCN)NC(=O)[C@H](CCN)NC(=O)[C@H](CC(C)C)NC(=O)[C@@H](CC(C)C)NC(=O)[C@H](CCN)NC1=O)[C@@H](C)O [colistin] 0.873, Nc1ccc(C(=O)O)c(O)c1 [Sodium 4-aminosalicylate dihydrate] + CCC(C)CCCC(=O)N[C@@H](CCN)C(=O)N[C@H](C(=O)N[C@@H](CCN)C(=O)N[C@H]1CCNC(=O)[C@H]([C@@H](C)O)NC(=O)[C@H](CCN)NC(=O)[C@H](CCN)NC(=O)[C@H](CC(C)C)NC(=O)[C@@H](CC(C)C)NC(=O)[C@H](CCN)NC1=O)[C@@H](C)O [colistin] 0.973, O=C1CC2(CCCC2)CC(=O)N1CCCCN1CCN(c2ncccn2)CC1 [Buspirone hydrochloride] + CCC(C)CCCC(=O)N[C@@H](CCN)C(=O)N[C@H](C(=O)N[C@@H](CCN)C(=O)N[C@H]1CCNC(=O)[C@H]([C@@H](C)O)NC(=O)[C@H](CCN)NC(=O)[C@H](CCN)NC(=O)[C@H](CC(C)C)NC(=O)[C@@H](CC(C)C)NC(=O)[C@H](CCN)NC1=O)[C@@H](C)O [colistin] 1.17, COC(=O)[C@@H]1[C@H]2C[C@H]3c4[nH]c5ccccc5c4CCN3C[C@@H]2CC[C@@H]1O [Yohimbine hydrochloride] + CCC(C)CCCC(=O)N[C@@H](CCN)C(=O)N[C@H](C(=O)N[C@@H](CCN)C(=O)N[C@H]1CCNC(=O)[C@H]([C@@H](C)O)NC(=O)[C@H](CCN)NC(=O)[C@H](CCN)NC(=O)[C@H](CC(C)C)NC(=O)[C@@H](CC(C)C)NC(=O)[C@H](CCN)NC1=O)[C@@H](C)O [colistin] 1.03
